Measurements published in US8158806B2, “DAT1” (Department of Biotechnology, priority 2004, dated 2012).

Key:
[1] = tested on: CaSki; test: MTT cell viability assay, CaSki; type: cell-based; conditions: Homo sapiens, Ca-Ski, 48 h, read-out: IC50 values (growth inhibition constants)
Procedure: (§1) The compound DAT1 was tested for its cytotoxicity on human cervical, uterus and colon cancer cell lines and mouse fibrocercoma cells. Cell lines were obtained from ATCC, USA and NCCS, Pune, India. MTT assay, which correlates a fomazan dye formation wife the number of viable cells, was used for this purpose.
(§2) • 3. Cell Viability Assay: MTT assay was used to determine fee number of viable cells upon drug addition. Cells were seeded in microtitre plates (generally 5×10^3 cells per well) and were incubated with different concentrations of the cytotoxic agents for 48 h. Subsequently, 100 μl of MTT solution (0.6 mg/ml) was added per well and incubated at 37° C. for additional 2 h. The amount of formazan salt was quantified in quadruplicates by recording fee absorbance at 570 ran using a Biorad Plate reader. The growth inhibition constants (IC50) were calculated from the semi logarithmic dose response plots using fee nonlinear regression program Origin. […] Polymerization assay: MTP polymerization, in fee presence or absence of DAT1, was measured by the time course of fee turbidity at 37° at 345 nm. […] Tubulin binding: Emission spectra of DAT1 in presence of tubulin were recorded from 400 nm to 600 nm using an excitation wavelength of 374 nm. Excitation and emission bandpasses are 2.5 nm each and the fluorescence values recorded are uncorrected. […]

[2] = tested on: SiHa; test: MTT cell viability assay, SiHa; type: cell-based; conditions: Homo sapiens, 48 h, read-out: IC50 values (growth inhibition constants)
Procedure: as §1, §2

COc1cc2c(c(OC)c1OC)-c1ccc(OC)c(=O)cc1[C@@H](NC(C)=O)CC2 [Colchicine]
IC50 [1]: 250 nM | IC50 [2]: 2500 nM
